Four molecules from article PMC5660092 can be followed below.

Protein sequences, listed by entry. Tags and fused reporters are not part of them. Lines headed by an entry give the natural chain unless they say otherwise; changes in a name come on top.
UniProt Q14457: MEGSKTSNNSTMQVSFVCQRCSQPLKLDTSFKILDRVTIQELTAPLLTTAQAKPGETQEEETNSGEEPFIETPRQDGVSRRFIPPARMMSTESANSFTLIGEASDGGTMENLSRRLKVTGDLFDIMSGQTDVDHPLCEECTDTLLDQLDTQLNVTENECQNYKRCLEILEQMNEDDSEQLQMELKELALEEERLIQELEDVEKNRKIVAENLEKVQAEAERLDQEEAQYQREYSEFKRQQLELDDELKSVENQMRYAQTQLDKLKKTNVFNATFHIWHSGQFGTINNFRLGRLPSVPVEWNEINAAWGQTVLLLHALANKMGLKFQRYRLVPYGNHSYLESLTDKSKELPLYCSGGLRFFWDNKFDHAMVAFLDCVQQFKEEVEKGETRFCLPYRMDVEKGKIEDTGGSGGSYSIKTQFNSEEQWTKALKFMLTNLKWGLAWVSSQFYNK
UniProt P10415: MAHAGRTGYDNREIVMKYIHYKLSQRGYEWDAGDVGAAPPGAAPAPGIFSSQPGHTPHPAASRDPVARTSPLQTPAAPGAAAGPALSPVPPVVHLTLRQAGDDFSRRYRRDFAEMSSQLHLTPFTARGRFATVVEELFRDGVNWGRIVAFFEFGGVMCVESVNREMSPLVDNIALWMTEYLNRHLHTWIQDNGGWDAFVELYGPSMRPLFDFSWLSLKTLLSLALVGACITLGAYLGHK

Results are given in words; binding and its absence hold for the method and conditions named. Binding seen in cells or lysates may run through a third protein. Some binding calls cover weakened binding; strength is not graded here.

Assay [1] has as its target Beclin 1 (endogenous) (human (endogenous in HEK293T and SK-N-SH)) (UniProt Q14457). As to the kind of experiment: co-IP; endogenous proteins; SK-N-SH cells treated with 6 uM ionomycin or 100 nM EB1089, precipitated with anti-Beclin 1 or normal mouse IgG, western blot.
Assay [2] addresses Flag-Beclin 1-WT (human) (UniProt Q14457). Put plainly: co-IP; Flag-Beclin 1-WT and its mutants overexpressed in HEK293T cells; ionomycin or KN-93 treatment (Supplementary Fig. 2a, b).
In assay [3] the target is Flag-Beclin 1-S90A (human) (UniProt Q14457). The description is as above.
In assay [4] the target is p62 (endogenous) (human (endogenous in HEK293T)) (UniProt Q13501). As to the kind of experiment: co-IP; endogenous proteins; HEK293T cells treated with 6 uM ionomycin or 100 nM EB1089 for 24 h and 100 nM Baf A1 for 6 h, precipitated with anti-p62 or normal mouse IgG, western blot.

Turning to “Bcl-2 (endogenous, SK-N-SH) (from UniProt P10415 1-239)”, the binding result in assay [1] was “binds”.
As for “Bcl-2 (HEK293T lysate, Supplementary Fig. 2a, b) (from UniProt P10415 1-239)”, the binding result in assay [2] and in assay [3] was “binds” each time.

B1: Id-1 (endogenous) (protein, UniProt P41134 1-155)
chain: MKVASGSTATAAAGPSCALKAGKTASGAGEVVRCLSEQSVAISRCAGGAGARLPALLDEQQVNVLLYDMNGCYSRLKELVPTLPQNRKVSKVEILQHVIDYIRDLQLELNSESEVGTPGGRGLPVRAPLSTLNGEISALTAEAACVPADDRILCR
Take B1: the binding result in assay [4] is on record as “binds”.

B2: Id-2 (endogenous) (protein, UniProt Q02363 1-134)
chain: MKAFSPVRSVRKNSLSDHSLGISRSKTPVDDPMSLLYNMNDCYSKLKELVPSIPQNKKVSKMEILQHVIDYILDLQIALDSHPTIVSLHHQRPGQNQASRTPLTTLNTDISILSLQASEFPSELMSNDSKALCG
Regarding B2, in assay [4], the binding result is recorded as “binds”.
